Results are given in words; binding and its absence hold for the method and conditions named. Binding seen in cells or lysates may run through a third protein. These calls come from enrichment with a bait or labelling near it, and not all partners need be listed. No binding means not detected with the bait.
Legend:
[1] = target: PC4 and SF2 interacting protein (PSIP1/LEDGF), longer isoform p75, endogenous (mouse (endogenous in MEFs and mESCs)) (UniProt Q99JF8); assay: affinity purification with mass spectrometry; SILAC-IP-MS in MEFs: nuclear extracts in RIPA buffer with Benzonase; rabbit IgG (R0K0), anti-MOF (R6K4) and anti-PSIP/p75 (R10K8) on Protein A Dynabeads, 4°C 30 min, beads combined after the first wash; ratio over IgG
[2] = target: PC4 and SF2 interacting protein (PSIP1/LEDGF), longer isoform p75, endogenous (mouse (endogenous in MEFs and mESCs)) (UniProt Q99JF8); assay: affinity purification with mass spectrometry; SILAC-IP-MS in mESCs: nuclear extracts in RIPA buffer with Benzonase; rabbit IgG (R0K0), anti-MOF (R6K4) and anti-PSIP/p75 (R10K8) on Protein A Dynabeads, 4°C 30 min, beads combined after the first wash; ratio over IgG

Amino acid sequences for entries named in this document (tags omitted).
UniProt Q99JF8: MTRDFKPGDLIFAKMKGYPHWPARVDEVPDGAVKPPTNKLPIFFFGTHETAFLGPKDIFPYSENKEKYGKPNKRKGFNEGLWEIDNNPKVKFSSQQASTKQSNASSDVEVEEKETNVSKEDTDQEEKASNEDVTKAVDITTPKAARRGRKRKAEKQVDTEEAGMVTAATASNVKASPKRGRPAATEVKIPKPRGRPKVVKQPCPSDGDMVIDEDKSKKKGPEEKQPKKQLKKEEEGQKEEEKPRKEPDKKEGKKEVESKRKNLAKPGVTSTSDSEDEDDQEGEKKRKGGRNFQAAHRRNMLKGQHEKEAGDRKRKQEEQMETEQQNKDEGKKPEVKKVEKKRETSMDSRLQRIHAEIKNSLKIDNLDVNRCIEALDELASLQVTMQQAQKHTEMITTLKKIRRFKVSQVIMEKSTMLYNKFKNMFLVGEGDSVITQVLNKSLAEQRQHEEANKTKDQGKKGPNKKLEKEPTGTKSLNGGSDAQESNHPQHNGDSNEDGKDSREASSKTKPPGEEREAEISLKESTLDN
UniProt Q80YR6: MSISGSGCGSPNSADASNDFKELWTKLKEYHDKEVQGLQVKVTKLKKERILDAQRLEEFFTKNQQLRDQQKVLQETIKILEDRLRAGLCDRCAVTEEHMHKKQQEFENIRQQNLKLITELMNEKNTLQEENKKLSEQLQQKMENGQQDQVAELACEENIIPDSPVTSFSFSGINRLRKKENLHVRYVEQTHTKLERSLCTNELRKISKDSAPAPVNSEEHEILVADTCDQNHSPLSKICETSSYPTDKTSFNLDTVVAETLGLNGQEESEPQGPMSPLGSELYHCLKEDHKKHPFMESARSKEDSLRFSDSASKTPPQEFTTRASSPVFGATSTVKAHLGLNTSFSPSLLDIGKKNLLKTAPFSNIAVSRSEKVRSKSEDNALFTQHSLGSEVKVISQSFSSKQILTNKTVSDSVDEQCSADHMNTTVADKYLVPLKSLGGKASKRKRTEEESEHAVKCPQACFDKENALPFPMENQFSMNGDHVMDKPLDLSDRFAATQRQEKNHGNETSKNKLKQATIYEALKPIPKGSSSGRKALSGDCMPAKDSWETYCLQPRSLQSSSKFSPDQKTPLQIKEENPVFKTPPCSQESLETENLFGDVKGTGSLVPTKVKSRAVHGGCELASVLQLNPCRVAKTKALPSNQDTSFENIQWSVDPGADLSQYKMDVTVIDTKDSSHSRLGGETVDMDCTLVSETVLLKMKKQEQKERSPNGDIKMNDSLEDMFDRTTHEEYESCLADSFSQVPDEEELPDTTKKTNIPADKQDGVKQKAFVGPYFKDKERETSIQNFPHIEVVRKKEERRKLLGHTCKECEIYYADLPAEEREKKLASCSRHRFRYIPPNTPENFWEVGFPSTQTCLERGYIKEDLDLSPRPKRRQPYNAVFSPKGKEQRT
UniProt O08550: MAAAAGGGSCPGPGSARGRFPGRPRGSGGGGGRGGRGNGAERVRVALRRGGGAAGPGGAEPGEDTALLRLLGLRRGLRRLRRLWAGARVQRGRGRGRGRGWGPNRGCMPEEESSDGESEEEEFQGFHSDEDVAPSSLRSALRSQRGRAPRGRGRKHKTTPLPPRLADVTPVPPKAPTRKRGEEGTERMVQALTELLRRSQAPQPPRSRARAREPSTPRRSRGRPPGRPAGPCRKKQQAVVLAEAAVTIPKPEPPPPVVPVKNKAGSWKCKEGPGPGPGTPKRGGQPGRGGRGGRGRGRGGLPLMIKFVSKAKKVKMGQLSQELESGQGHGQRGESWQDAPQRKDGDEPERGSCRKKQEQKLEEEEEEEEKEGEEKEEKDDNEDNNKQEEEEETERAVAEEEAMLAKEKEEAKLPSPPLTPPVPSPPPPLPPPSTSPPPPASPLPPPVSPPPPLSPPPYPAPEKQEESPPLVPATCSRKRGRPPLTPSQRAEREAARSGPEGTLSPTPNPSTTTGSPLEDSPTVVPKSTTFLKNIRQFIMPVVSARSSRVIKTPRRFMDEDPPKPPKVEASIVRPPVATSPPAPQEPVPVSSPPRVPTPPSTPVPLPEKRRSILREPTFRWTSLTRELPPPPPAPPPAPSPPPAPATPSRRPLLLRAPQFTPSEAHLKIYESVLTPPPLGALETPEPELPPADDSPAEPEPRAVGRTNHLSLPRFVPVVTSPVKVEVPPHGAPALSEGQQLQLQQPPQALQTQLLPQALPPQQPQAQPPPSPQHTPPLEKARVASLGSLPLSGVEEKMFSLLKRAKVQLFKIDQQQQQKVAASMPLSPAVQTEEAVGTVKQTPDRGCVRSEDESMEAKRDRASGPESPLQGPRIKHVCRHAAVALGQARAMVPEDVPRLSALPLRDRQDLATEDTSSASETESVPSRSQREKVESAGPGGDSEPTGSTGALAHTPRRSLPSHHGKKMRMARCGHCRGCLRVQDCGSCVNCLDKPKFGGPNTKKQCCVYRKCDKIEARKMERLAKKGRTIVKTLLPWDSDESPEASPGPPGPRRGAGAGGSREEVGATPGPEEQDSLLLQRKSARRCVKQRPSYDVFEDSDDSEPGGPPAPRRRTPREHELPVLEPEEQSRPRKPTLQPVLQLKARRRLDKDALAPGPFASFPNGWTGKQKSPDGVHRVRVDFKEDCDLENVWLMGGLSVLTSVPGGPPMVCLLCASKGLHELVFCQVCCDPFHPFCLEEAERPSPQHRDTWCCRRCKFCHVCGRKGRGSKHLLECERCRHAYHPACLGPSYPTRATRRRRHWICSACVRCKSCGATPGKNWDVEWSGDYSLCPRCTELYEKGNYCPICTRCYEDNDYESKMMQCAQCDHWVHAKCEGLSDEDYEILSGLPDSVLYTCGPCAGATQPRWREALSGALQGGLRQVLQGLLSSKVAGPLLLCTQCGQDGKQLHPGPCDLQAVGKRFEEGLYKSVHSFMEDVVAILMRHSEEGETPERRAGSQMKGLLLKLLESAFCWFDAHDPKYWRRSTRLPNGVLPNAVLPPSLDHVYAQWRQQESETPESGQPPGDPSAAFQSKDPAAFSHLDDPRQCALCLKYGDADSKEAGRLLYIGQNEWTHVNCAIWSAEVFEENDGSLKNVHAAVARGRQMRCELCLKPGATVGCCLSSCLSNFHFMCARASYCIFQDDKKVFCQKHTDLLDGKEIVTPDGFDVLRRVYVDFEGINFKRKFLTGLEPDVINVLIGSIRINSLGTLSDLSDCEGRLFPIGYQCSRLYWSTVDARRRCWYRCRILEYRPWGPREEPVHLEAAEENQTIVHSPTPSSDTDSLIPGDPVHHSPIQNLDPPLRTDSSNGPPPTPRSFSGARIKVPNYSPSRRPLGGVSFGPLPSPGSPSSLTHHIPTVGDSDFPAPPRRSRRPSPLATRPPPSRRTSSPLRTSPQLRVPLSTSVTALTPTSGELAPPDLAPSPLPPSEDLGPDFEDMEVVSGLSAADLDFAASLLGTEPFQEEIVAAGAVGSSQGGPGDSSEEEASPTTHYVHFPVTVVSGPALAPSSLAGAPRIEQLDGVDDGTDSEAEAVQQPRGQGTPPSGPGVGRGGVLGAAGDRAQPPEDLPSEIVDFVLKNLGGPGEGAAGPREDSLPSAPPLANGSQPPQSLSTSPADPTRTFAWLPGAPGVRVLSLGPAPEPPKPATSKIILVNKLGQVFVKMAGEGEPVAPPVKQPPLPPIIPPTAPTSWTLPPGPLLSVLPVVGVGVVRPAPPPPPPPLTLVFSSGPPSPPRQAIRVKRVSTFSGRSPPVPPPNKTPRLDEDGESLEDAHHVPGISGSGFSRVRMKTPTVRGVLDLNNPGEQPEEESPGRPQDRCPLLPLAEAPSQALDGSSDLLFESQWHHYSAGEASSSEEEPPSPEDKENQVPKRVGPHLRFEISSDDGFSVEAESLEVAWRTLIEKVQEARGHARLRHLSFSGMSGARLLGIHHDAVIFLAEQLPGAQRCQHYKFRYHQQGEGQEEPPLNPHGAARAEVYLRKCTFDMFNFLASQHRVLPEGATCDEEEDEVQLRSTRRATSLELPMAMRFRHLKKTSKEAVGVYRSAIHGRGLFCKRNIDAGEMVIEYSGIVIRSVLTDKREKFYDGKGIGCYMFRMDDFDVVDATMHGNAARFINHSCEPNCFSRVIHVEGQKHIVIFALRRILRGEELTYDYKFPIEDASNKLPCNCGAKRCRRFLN
UniProt O88559: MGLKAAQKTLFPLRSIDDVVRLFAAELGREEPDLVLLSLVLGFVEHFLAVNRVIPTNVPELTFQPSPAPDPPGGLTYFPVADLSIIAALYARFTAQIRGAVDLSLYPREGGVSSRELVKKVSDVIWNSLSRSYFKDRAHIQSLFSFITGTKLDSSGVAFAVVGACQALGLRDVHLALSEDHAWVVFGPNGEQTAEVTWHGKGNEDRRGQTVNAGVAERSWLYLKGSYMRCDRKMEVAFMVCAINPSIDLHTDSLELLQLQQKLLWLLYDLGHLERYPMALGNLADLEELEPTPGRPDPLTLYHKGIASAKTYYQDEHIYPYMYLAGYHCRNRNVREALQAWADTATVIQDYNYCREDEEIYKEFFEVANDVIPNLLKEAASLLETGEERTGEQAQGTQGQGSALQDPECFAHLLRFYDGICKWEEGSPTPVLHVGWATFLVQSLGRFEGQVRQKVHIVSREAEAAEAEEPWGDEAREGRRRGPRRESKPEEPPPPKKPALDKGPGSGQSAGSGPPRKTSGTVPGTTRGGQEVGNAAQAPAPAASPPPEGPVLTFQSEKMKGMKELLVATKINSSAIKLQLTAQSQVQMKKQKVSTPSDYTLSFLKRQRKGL
UniProt P11103: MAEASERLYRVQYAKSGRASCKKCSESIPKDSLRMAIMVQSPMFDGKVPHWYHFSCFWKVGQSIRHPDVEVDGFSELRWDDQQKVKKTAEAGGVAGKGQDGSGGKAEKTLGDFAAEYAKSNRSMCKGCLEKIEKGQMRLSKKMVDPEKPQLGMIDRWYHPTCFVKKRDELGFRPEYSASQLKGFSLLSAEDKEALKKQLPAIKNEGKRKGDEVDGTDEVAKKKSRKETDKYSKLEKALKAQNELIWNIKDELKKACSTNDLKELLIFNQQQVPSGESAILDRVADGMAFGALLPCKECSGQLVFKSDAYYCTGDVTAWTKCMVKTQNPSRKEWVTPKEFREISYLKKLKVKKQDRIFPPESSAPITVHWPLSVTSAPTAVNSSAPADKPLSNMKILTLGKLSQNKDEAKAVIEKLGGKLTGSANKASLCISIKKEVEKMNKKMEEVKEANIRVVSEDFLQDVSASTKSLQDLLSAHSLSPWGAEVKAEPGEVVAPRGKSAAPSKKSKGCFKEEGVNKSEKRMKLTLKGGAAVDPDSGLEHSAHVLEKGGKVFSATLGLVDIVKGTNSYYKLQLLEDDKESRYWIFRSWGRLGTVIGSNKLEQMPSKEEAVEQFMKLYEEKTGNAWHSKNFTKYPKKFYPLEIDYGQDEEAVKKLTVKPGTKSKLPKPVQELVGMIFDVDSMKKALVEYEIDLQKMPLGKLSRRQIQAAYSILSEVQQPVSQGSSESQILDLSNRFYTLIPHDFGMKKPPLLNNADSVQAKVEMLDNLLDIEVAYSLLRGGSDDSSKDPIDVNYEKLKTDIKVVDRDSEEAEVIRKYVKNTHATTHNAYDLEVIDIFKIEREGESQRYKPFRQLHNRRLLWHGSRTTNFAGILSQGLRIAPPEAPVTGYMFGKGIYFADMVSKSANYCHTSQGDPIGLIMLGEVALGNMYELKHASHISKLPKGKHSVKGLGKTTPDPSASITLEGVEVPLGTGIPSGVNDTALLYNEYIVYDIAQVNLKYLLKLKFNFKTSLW

| binding [1] | binding [2] | Substance |
| --- | --- | --- |
| no binding | no binding | C-terminal binding protein interacting protein (CtIP) (from UniProt Q80YR6 1-893) |
| no binding | no binding | MLL2 (from UniProt O08550 1-2713) |
| no binding | no binding | Menin (from UniProt O88559 1-611) |
| binds | binds | PARP1 (from UniProt P11103 1-1013) |
